For 38 molecules, cell number change and AC50 results are on record in PubChem BioAssay AID2685 (National Center for Advancing Translational Sciences (NCATS), 2010).

The assay in a line: qHTS Assay for Lipid Storage Modulators in Drosophila S3 Cells.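 On cell number change: cells counted by Cell Tracker Red CMTPX staining in the red channel.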 The settings on record: BODIPY lipid droplet fluorescence, 18-24 h; for cell number change: measured here: cell count max response, cells fed with added oleic acid. In short, it runs like this: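 Laser-scanning cytometry quantifies lipid droplet accumulation (500–530 nm total intensity; droplet/cell object ratio) in oleic acid-fed (400 uM added) Drosophila S3 cells treated with a concentration series. 20 uM Triacsin C defined 100% inhibition.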
On the technique in general: In qHTS, concentration-response curves come from the screen itself.

[1] abbreviates: measured here: lipid fluorescence (Fed channel) AC50, cells fed with added oleic acid.
[2] abbreviates: measured here: cell number channel AC50, cells fed with added oleic acid.

One may read the AC50 as the concentration at which the activity in the assay is half-maximal. High values mean weaker potency, low ones greater potency.

This is one part of the list. The main result of the screen is listed elsewhere. These columns were measured beside it and carry no call. Compounds called inactive in the main read-out are mostly missing here. Words in brackets tell the shape of the fitted curve; partial curves, single points and poor fits give uncertain potencies.

For `COc1cc(-c2cc(C(=O)N3CCN(c4ccccn4)CC3)c3ccccc3n2)cc(OC)c1OC`, the cell number change was -16.1%.

As to `COCCNS(=O)(=O)c1ccc(C2CNC(=O)C2)cc1` (stereo not given), the cell number change came to 1.75%.

`O=C1c2ccccc2C(=O)N1/N=C/c1ccc(Oc2ccc([N+](=O)[O-])cn2)cc1`: the cell number change came out at 18.2%. For the same molecule, the half-maximal activity concentration (AC50) under setting [1] was 0.103 µM [falling, full curve, poor fit].

In the case of `CN(C)Cc1c(C(=O)N/N=C/c2ccco2)nnn1-c1nonc1N`, the cell number change was -1.28%. Moreover, under setting [1], the AC50 is 0.411 µM [rising, partial curve, poor fit].

With `COc1ccc(NC(=O)Nc2ccc3nc(C)c(C)nc3c2)cc1`, the cell number change was found to be 22.1%. Also, the AC50 under setting [1] is 29.1 µM [rising, partial curve, poor fit].

Consider `O=[N+]([O-])c1ccc(N=Cc2ccc(Br)c([N+](=O)[O-])c2)cc1`, for which the cell number change is -61.4%. For the same molecule, the AC50 under setting [2] is 0.184 µM [falling, full curve].

As for `Cc1nnc2n(-c3ccccc3)c(=O)c3c4c(sc3n12)COC(C(C)C)C4` (stereo not given), the cell number change was -1.4%. Further, the concentration at half-maximal activity (AC50) under setting [1] was 1.03 µM [rising, partial curve].

In the case of `CCCCn1c(/N=C/c2ccc3c(c2)OCO3)nc2ccccc21`, the cell number change stood at 24.8%. Besides, under setting [2], the AC50 is 0.00411 µM [rising, full curve, poor fit]. The AC50 under setting [1] is 1.3 µM [falling, full curve].

In the case of `Cc1cc(O)c(C(C)C)cc1N=Cc1ccccc1O`, the cell number change was -66.5%. Under setting [2], the AC50 was 23.1 µM [falling, partial curve]. The AC50 under setting [1] was 25.9 µM [falling, partial curve].

For `Cc1cccc(OCC(O)CN2CCNCC2)c1` (stereo not given), the cell number change turned out to be 5.56%.

Consider `COc1ccc(-c2c(C#Cc3ccsc3)c3cc(Br)ccc3n2C)cc1`, for which the cell number change was -22.7%. Moreover, the AC50 under setting [1] was 0.58 µM [falling, single point].

Consider `Cc1ccc(S(=O)(=O)Nc2ccc(O)c(S(=O)(=O)c3ccc(C)cc3)c2)cc1`, for which the cell number change is -25.1%.

As for `CN(CCC#N)C(=O)COC(=O)c1ccc(Cl)c(S(N)(=O)=O)c1`, the cell number change was -73.1%. Besides, the AC50 under setting [2] is 3.26 µM [falling, full curve]. For the same molecule, under setting [1], the concentration at half-maximal activity (AC50) was 3.66 µM [falling, full curve].

Take `Cc1cccc(OCC(=O)Nc2ccc3nc(C)sc3c2)c1`: under setting [1], the AC50 is 5.17 µM [falling, single point].

As to `COc1ccc(C(=O)NCCOc2ccccc2)cc1S(=O)(=O)N1CCOCC1`, the cell number change was found to be 33.4%. The half-maximal activity concentration (AC50) under setting [2] is 0.164 µM [rising, full curve, poor fit]. The half-maximal activity concentration (AC50) under setting [1] was 0.164 µM [rising, full curve, poor fit].

Take `Cc1cc(CNC(=O)CC2C(=O)NCCN2Cc2ccccc2)nn1C` (stereo not given): the cell number change came to 10.8%. Also, under setting [1], the half-maximal activity concentration (AC50) is 29.1 µM [rising, single point].

On to `Cc1[nH]c2ccccc2c1/C=N/Nc1nc(N2CCCCC2)nc(N2CCCCC2)n1`, for which the cell number change was found to be 12.4%. For the same molecule, under setting [1], the AC50 was 3.26 µM [rising, full curve, poor fit].

Regarding `COc1ccc(OC)c(C(O)c2coc3ccc(O)c(CN(C)C)c23)c1` (stereo not given), the cell number change was found to be 34.2%. For the same molecule, the AC50 under setting [2] was 11.6 µM [rising, partial curve, poor fit].

On to `CCCC(O)(c1ccc(Cl)cc1)C(CN1CCOCC1)c1ccc(Cl)cc1` (stereo not given), for which the cell number change was -52.1%. Besides, under setting [2], the AC50 was 18.4 µM [falling, partial curve]. For the same molecule, the AC50 under setting [1] is 29.1 µM [falling, single point].

For `COc1cc(C(=O)Nc2ccc(S(=O)(=O)Nc3cc(C)nc(C)n3)cc2)cc(OC)c1OC`, the cell number change was -3.42%. Besides, under setting [1], the concentration at half-maximal activity (AC50) is 29.1 µM [falling, single point].

In the case of `O=C(NCc1ccccc1)c1nc(-c2cccs2)no1`, the cell number change was determined as 24.7%. Besides, the AC50 under setting [1] was 16.4 µM [rising, single point].

In the case of `COc1ccc(C(C(=O)NC2CCCC2)N(Cc2cccnc2)C(=O)c2snc(C(N)=O)c2N)cc1` (stereo not given), the cell number change came out at 22.6%.

Consider `Nc1ccc(C(=O)Oc2ccc([N+](=O)[O-])cc2)cc1`, for which the cell number change is -6.34%. For the same molecule, the half-maximal activity concentration (AC50) under setting [2] was 0.116 µM [falling, full curve, poor fit]. Further, the AC50 under setting [1] was 0.092 µM [falling, full curve, poor fit].

Turning to `Clc1ccc2c(N/N=C/c3ccc(Br)cc3)ccnc2c1`, the cell number change was -75%. Further, the concentration at half-maximal activity (AC50) under setting [2] was 8.2 µM [falling, partial curve].

`COc1cc(C(O)P(=O)(OC2CCCCC2)c2ccc(N(C)C)cc2)cc(OC)c1OC` (stereo not given): the cell number change amounted to 46.3%. Besides, the AC50 under setting [2] was 16.4 µM [rising, single point].

As for `CN(C)c1ccc(C2N(c3ccc(Cl)cc3)C(=O)C3CCCN32)cc1` (stereo not given), the cell number change was 3.71%.

Turning to `O=C(C1CCC(=O)N(C2CCCCCC2)C1)N1CCN(c2ccccc2Cl)CC1` (stereo not given), the cell number change was -26.3%. Besides, under setting [1], the AC50 was 2.06 µM [falling, partial curve].

As for `CCCNC(=O)c1ccc2c(=O)c(O)c(-c3ccc(C)cc3)[nH]c2c1`, the cell number change was -38.5%. For the same molecule, the AC50 under setting [2] is 29.1 µM [falling, single point]. For the same molecule, the concentration at half-maximal activity (AC50) under setting [1] was 29.1 µM [falling, single point].

`CC(=O)N1CCc2cc(S(=O)(=O)CCC(=O)NCc3ccc(F)cc3)ccc21`: the cell number change was -0.19%. For the same molecule, the half-maximal activity concentration (AC50) under setting [2] is 1.84 µM [rising, partial curve, poor fit].

Regarding `CC(C)(C)OC(=O)CNC(=O)c1[nH]cnc1C(=O)N[C@@H](Cc1ccccc1)C(=O)OCc1ccccc1`, the cell number change is 5.99%.

Take `O=C(CNC(=O)c1ccncc1)N/N=C/c1ccccn1`: the cell number change turned out to be 3.13%. Further, the AC50 under setting [1] is 2.31 µM [falling, partial curve].

As to `Cc1ccc(OCC(=O)NCCCNC(=O)c2ccco2)cc1`, the cell number change worked out at 6.52%. Moreover, the AC50 under setting [1] was 6.51 µM [falling, single point].

Regarding `COc1ccc(C(=O)NCC(=O)NCC(=O)OCc2ccc(Br)cc2)cc1`, the AC50 under setting [2] was 2.91 µM [rising, single point].

In the case of `O=C1CN(CC(=O)NC(=O)NCc2ccccc2)CCN1`, the cell number change was -22.5%. For the same molecule, the AC50 under setting [2] is 3.66 µM [falling, full curve, poor fit]. The concentration at half-maximal activity (AC50) under setting [1] is 23.1 µM [falling, single point].

For `CN(C)CCNc1ccc(-c2n[nH]c(=O)c3ccccc23)cc1[N+](=O)[O-]`, the cell number change came out at 16.7%.

In the case of `O=C1C2C3C=CC(C3)C2C(=O)N1CC1CCCO1` (stereo not given), the cell number change was -8.5%. Moreover, the concentration at half-maximal activity (AC50) under setting [1] was 0.517 µM [falling, full curve].

With `CCC1CCCCN1CCCNC(=O)CN1C(=O)CSc2ccc(S(=O)(=O)N3CCC(C)CC3)cc21` (stereo not given), the cell number change was found to be 5.5%. Moreover, under setting [1], the half-maximal activity concentration (AC50) is 29.1 µM [rising, single point].

Regarding `Cc1c(Cc2ccc3c(c2)OCO3)sc(NC(=O)C2CC2)c1C(N)=O`, the cell number change was 26.3%. Besides, the AC50 under setting [2] was 0.326 µM [rising, full curve]. For the same molecule, the AC50 under setting [1] was 0.092 µM [rising, full curve, poor fit].
